# Results: article PMC10517141
# By UniProt entry, the sequences of proteins in these tests, tags left out.
# UniProt Q07820: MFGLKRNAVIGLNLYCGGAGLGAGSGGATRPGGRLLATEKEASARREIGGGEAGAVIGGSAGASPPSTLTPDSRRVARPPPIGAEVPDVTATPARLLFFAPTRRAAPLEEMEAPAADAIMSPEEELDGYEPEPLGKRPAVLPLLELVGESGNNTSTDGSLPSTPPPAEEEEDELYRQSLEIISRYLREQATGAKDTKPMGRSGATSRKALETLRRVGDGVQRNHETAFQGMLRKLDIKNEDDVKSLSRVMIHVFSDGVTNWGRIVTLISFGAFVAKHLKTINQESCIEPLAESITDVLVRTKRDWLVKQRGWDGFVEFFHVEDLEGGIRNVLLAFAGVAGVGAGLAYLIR
# No constants are given. Whether binding was seen depends on the method and setting. Binding seen in cells or lysates may run through a third protein. Some binding calls cover weakened binding; strength is not graded here.
# B1: Bim (the longest Bim), endogenous mouse protein, O54918 1-196 (protein)
# chain: MAKQPSDVSSECDREGGQLQPAERPPQLRPGAPTSLQTEPQGNPDGEGDRCPHGSPQGPLAPPASPGPFATRSPLFIFVRRSSLLSRSSSGYFSFDTDRSPAPMSCDKSTQTPSPPCQAFNHYLSAMASIRQSQEEPEDLRPEIRIAQELRRIGDEFNETYTRRVFANDYREAEDHPQMVILQLLRFIFRLVWRRH
# Experiments:
# [1] = target: T1, IRG1 overexpressed in BNL CL.2 cells (UniProt P54987); experiment: co-IP; endogenous MCL-1 and Bim from lysates of BNL CL.2 and HHL-5 hepatocyte cell lines transfected with control vector or IRG1 overexpression plasmid
# T1 sequence: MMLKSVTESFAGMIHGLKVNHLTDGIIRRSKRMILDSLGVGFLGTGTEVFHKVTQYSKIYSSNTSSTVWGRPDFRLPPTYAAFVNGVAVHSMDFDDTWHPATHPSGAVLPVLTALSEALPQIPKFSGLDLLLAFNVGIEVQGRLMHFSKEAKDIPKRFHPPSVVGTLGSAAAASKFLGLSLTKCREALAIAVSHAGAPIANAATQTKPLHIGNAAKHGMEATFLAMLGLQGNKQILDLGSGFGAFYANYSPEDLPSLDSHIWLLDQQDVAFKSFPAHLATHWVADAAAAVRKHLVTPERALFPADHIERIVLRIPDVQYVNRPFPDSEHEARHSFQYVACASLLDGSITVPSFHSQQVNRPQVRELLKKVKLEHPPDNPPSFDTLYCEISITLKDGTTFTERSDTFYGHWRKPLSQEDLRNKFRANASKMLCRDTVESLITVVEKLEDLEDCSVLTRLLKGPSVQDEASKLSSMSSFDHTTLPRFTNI
# [2] = target: T2, Immunoresponsive gene 1 (IRG1), endogenous in mouse liver (mouse (endogenous in liver)) (UniProt P54987); experiment: co-IP; endogenous proteins from liver lysates of eight-week-old male mice (also Irg1 f/f and Irg1 hep-/-) injected with DEN or APAP; cell lysis buffer with protease inhibitor cocktail
# T2 sequence: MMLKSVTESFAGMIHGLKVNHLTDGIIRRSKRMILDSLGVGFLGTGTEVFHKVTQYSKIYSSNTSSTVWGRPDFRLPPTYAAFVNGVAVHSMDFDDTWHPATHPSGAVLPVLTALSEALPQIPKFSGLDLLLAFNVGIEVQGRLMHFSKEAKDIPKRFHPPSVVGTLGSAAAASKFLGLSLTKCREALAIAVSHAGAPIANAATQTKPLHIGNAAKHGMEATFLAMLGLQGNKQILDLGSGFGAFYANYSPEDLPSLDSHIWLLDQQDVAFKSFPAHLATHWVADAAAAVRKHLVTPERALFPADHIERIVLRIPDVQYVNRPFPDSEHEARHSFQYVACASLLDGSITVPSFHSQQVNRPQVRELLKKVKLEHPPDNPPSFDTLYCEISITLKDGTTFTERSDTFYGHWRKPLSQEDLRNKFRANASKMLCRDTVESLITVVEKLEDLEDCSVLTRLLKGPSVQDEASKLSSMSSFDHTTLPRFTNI
# [3] = target: T3, IRG1 overexpressed in HHL-5 cells (UniProt A6NK06); experiment: co-IP; endogenous MCL-1 and Bim from lysates of BNL CL.2 and HHL-5 hepatocyte cell lines transfected with control vector or IRG1 overexpression plasmid
# T3 sequence: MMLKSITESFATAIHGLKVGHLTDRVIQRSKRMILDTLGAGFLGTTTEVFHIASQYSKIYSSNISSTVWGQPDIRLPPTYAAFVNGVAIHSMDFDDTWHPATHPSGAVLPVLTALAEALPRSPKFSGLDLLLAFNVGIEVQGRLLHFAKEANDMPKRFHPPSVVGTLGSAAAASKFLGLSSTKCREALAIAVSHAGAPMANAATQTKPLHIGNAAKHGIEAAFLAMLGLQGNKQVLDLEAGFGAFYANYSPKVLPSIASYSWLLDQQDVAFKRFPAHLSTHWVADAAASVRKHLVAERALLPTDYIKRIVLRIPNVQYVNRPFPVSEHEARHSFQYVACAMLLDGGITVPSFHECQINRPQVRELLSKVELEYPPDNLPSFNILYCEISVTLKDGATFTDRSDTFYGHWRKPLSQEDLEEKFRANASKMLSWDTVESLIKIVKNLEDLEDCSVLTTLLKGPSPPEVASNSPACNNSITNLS
# [4] = target: T4, MCL-1, endogenous mouse protein (mouse (endogenous in liver and in BNL CL.2)), P97287; experiment: as above; details: remark: other sources report otherwise
# T4 chain: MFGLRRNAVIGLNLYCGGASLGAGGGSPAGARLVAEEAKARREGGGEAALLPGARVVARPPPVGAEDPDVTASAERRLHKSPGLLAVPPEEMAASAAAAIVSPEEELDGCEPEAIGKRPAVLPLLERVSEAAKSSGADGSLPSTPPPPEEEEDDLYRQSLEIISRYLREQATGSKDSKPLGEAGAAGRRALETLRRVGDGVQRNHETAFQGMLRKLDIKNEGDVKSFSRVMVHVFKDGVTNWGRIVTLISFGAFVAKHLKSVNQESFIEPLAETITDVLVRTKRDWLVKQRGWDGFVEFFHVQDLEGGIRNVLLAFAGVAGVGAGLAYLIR
# [5] = target: T4, MCL-1, endogenous mouse protein (mouse …); experiment: co-IP; endogenous proteins from liver lysates of eight-week-old male mice (also Irg1 f/f and Irg1 hep-/-) injected with DEN or APAP; cell lysis buffer with protease inhibitor cocktail; details: remark: other sources report otherwise
molecule,measurement,setting,value
"MCL-1, endogenous mouse protein (from UniProt P97287 1-331)",binding,[1],binds
same,binding,[2],binds
"MCL-1, endogenous in HHL-5 cells (from UniProt Q07820 1-350)",binding,[3],binds
B1,binding,[4],binds
same,binding,[5],binds
